What all share (assay): affinity purification with mass spectrometry; immunoprecipitation with 2 µg antibody (anti-α5, anti-α1, anti-Nlgn2 or control anti-GluA2/3) from 1% MNG extracts of mouse hippocampus and olfactory bulb, overnight 4 °C, protein A/G plus agarose beads, four washes with 0.1% MNG, 25 mM HEPES, 150 mM NaCl pH 7.4; SDS-PAGE, diaPASEF mass spectrometry; iBAQ normalised to the bait
Test [1] has as its target GABAA receptor α5 subunit (Gabra5) (mouse (endogenous in hippocampus and olfactory bulb)) (UniProt Q8BHJ7).
Test [2] deals with GABAA receptor α1 subunit (Gabra1) (mouse (endogenous in hippocampus and olfactory bulb)) (UniProt P62812).
The target of test [3] is T1, GABAA receptor α1 subunit (Gabra1) (mouse (endogenous in hippocampus and olfactory bulb)), P62812.
T1 chain: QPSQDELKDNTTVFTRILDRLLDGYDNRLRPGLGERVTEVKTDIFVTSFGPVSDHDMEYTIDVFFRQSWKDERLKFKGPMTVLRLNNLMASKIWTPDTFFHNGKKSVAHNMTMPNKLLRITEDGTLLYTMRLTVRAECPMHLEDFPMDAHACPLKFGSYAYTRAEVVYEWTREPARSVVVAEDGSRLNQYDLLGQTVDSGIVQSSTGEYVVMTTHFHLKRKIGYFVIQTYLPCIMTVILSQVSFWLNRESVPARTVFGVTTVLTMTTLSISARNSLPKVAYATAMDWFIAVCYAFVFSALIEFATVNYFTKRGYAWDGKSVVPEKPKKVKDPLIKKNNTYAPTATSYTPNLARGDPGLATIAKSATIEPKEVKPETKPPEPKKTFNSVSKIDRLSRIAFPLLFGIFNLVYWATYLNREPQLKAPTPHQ
To be noted: remark: other sources report otherwise.

By UniProt entry, the sequences of proteins in these tests, tags left out. Residues count along the entry.
UniProt Q69ZK9, residues 15-836: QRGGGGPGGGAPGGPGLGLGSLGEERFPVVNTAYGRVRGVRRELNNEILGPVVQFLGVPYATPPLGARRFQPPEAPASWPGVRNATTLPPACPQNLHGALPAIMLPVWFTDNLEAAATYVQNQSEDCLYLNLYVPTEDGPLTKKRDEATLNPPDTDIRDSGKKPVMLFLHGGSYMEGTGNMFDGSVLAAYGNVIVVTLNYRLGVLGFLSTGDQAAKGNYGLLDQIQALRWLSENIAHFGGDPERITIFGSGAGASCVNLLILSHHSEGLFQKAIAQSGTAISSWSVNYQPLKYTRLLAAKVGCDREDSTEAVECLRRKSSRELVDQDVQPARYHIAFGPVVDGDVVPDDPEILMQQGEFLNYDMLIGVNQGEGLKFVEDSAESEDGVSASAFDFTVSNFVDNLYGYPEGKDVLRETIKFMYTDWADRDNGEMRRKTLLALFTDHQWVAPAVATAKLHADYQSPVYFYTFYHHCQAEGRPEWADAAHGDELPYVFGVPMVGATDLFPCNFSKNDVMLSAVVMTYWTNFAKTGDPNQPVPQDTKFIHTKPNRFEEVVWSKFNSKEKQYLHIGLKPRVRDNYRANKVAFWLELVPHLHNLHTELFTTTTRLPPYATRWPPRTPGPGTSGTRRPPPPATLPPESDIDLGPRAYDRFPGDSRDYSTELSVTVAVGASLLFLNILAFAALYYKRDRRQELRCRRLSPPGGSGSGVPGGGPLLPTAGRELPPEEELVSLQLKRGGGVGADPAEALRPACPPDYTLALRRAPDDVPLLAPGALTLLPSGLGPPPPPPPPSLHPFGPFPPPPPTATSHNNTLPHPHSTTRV

Test [4] concerns the target T2, GABAA receptor α5 subunit (Gabra5) (mouse (endogenous in hippocampus and olfactory bulb)), Q8BHJ7.
T2 chain: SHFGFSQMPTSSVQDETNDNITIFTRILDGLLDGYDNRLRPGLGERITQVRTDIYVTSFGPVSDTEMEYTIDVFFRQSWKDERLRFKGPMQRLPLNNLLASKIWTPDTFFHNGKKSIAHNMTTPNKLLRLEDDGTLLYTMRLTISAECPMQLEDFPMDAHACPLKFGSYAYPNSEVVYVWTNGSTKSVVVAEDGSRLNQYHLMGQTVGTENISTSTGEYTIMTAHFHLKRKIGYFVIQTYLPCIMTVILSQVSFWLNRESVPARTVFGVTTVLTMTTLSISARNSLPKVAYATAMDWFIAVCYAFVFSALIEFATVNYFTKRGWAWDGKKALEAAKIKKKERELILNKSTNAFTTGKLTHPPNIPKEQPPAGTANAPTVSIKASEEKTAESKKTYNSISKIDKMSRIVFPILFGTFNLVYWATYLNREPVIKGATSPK
To be noted: remark: other sources report otherwise.

Results are given in words; binding and its absence hold for the method and conditions named. Binding seen in cells or lysates may run through a third protein. These calls come from enrichment with a bait or labelling near it, and not all partners need be listed. For part of these data: Tags and fused reporters may be left off the sequences shown.

Consider “GABAA receptor δ subunit (from UniProt P22933 25-449)”, for which the binding result in test [1] is “binds”.

With “Neuroligin 2 (Nlgn2) (from UniProt Q69ZK9 15-836)”, the binding entry in test [2] and in test [1] was “binds” in each case.

B1: GABAA receptor α4 subunit, Q9D6F4 36-552 (protein)
chain: QNSKDEKLCPENFTRILDSLLDGYDNRLRPGFGGPVTEVKTDIYVTSFGPVSDVEMEYTMDVFFRQTWIDKRLKYDGPIEILRLNNMMVTKVWTPDTFFRNGKKSVSHNMTAPNKLFRIMRNGTILYTMRLTISAECPMRLVDFPMDGHACPLKFGSYAYPKSEMIYTWTKGPEKSVEVPKESSSLVQYDLIGQTVSSETIKSITGEYIVMTVYFHLRRKMGYFMIQTYIPCIMTVILSQVSFWINKESVPARTVFGITTVLTMTTLSISARHSLPKVSYATAMDWFIAVCFAFVFSALIEFAAVNYFTNIQMQKAKKKISKPPPEVPAAPVLKEKHTETSLQNTHANLNMRKRTNALVHSESDVKSRTEVGNHSSKTSAVQESSEATPKAHLASSPNPFSRANAAETMSAAARGLSSAASPSPHGTLRPASLGSASTRPAFGSRLGRIKTTVNTTGAAGNVSATPPPPAPPPSGSGTSKIDKYARILFPVTFGAFNMVYWVVYLSKDTMEKSESLM
For B1, the binding result in test [3] was “binds”.

B2: GABAA receptor α2 subunit, P26048 29-451 (protein)
chain: NIQEDEAKNNITIFTRILDRLLDGYDNRLRPGLGDSITEVFTNIYVTSFGPVSDTDMEYTIDVFFRQKWKDERLKFKGPMNILRLNNLMASKIWTPDTFFHNGKKSVAHNMTMPNKLLRIQDDGTLLYTMRLTVQAECPMHLEDFPMDAHSCPLKFGSYAYTTSEVTYIWTYNASDSVQVAPDGSRLNQYDLLGQSIGKETIKSSTGEYTVMTAHFHLKRKIGYFVIQTYLPCIMTVILSQVSFWLNRESVPARTVFGVTTVLTMTTLSISARNSLPKVAYATAMDWFIAVCYAFVFSALIEFATVNYFTKRGWAWDGKSVVNDKKKEKGSVMIQNNAYAVAVANYAPNLSKDPVLSTISKSATTPEPNKKPENKPAEAKKTFNSVSKIDRMSRIVFPVLFGTFNLVYWATYLNREPVLGVSP
Turning to B2, the binding result in test [4] is given as “binds”.

B3: Lipoma HMGIC fusion partner-like 4 (Lhfpl4) (protein, UniProt Q5U4E0 1-247)
chain: MLPSQEASKLYHEHYMRNSRAIGVLWAIFTICFAIINVVVFIQPYWVGDSVSTPKPGYFGLFHYCVGSGLAGRELTCRGSFTDFSTIPSSAFKAAAFFVLLSMVLILGCITCFALFFFCNTATVYKICAWMQLLAALCLVLGCMIFPDGWDAETIRDMCGAKTGKYSLGDCSVRWAYILAIIGILNALILSFLAFVLGNRQTDLLQEELKQENKDFVGTTVSSVLRPGGDVSGWGVLPCPVAHTQGP
As to B3, in test [2], the binding result is “binds”.

For the origin of these results see paper PMC10778189.
